The test addresses SRPK1ΔNS3. Nature of the test: covalent adduct formation assay (SDS-PAGE band shift); 8 μM peptide added to 2 μM protein (1:4 protein:peptide) in 50 mM HEPES pH 7.5, 150 mM NaCl, 5% glycerol, 1 mM benzamidine for the indicated times; SDS-PAGE, Coomassie Blue; both purified.

These are yes or no findings as the source states them, for the method shown. Binding calls can cover weak binding; strength is not graded here.

B1: DBS1-2 (peptide)
peptide: RERARTRRERARTRERARTR
modifications: E9 side chain esterified with 4-nitrophenol; N-terminal acetyl; C-terminal amide
With B1, the binding entry is “binds”.

These data come from paper PMC11211491, “Design of a covalent protein-protein interaction inhibitor of SRPKs to suppress angiogenesis and invasion of cancer cells” (Communications Chemistry, 2024).
